Source: the supplement of paper PMC12819154, “High-throughput peptide-centric local stability assay extends protein–ligand identification to membrane proteins, tissues and bacteria” (Nature Structural & Molecular Biology, 2025)
The list shows a part of the results. Most entries show no effect beyond the scatter of the controls.

Chains of the proteins cited; added tags and fusions are not shown. Lines headed by an entry give the natural chain unless they say otherwise; changes in a name come on top.
UniProt Q9C030: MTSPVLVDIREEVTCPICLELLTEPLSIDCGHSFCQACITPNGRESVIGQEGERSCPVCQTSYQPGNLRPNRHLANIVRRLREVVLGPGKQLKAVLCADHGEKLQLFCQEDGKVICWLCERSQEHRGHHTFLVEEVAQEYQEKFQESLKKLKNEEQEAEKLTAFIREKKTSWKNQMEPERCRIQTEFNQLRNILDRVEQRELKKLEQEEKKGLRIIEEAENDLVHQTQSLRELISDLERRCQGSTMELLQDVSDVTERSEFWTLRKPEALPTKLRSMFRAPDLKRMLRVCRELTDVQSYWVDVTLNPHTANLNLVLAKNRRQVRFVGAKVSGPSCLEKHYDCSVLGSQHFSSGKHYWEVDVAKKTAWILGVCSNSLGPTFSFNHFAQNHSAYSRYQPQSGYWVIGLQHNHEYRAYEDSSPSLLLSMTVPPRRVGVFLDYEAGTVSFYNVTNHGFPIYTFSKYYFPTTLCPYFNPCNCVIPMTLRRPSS
UniProt Q9GZM8: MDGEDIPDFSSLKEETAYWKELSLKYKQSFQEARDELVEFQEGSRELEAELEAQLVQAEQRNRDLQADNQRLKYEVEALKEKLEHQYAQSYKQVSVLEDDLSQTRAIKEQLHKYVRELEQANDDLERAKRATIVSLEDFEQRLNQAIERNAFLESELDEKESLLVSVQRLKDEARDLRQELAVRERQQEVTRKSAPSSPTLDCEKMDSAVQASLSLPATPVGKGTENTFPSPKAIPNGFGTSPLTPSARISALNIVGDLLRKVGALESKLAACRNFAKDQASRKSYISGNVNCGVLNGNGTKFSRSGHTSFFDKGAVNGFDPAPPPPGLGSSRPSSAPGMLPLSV
UniProt Q9BXW9: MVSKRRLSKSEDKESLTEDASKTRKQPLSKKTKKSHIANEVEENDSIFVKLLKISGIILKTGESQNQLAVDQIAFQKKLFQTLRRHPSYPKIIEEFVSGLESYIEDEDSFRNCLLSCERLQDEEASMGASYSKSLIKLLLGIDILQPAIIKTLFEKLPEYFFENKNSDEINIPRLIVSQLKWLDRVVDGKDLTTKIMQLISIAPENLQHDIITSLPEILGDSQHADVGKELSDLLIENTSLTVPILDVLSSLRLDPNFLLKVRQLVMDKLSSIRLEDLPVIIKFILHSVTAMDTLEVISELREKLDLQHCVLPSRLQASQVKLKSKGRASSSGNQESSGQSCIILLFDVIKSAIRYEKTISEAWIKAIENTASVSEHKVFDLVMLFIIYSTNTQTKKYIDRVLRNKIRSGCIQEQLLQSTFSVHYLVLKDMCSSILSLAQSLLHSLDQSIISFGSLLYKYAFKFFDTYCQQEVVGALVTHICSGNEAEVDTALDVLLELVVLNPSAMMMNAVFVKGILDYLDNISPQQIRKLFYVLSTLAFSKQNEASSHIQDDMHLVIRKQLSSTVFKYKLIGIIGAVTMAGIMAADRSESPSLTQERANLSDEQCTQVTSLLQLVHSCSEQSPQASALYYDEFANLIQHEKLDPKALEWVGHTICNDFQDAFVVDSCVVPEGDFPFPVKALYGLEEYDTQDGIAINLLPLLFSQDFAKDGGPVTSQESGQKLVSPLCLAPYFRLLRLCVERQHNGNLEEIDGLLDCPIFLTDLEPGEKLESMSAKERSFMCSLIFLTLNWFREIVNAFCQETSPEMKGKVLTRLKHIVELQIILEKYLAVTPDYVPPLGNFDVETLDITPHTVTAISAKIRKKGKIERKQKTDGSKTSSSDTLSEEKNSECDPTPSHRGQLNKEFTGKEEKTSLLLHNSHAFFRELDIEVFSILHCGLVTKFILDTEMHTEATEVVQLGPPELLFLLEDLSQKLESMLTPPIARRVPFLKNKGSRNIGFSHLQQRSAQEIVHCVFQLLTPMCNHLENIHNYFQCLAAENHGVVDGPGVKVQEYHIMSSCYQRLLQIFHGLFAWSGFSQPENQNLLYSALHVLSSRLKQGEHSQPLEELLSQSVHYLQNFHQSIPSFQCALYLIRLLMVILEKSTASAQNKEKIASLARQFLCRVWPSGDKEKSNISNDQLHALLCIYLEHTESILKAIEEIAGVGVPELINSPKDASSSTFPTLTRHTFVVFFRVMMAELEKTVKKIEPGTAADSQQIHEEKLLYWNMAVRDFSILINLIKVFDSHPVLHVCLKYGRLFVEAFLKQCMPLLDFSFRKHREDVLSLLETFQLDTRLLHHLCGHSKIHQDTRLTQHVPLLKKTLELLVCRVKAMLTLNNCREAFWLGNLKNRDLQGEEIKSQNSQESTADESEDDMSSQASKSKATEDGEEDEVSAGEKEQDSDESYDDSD
UniProt Q9H040: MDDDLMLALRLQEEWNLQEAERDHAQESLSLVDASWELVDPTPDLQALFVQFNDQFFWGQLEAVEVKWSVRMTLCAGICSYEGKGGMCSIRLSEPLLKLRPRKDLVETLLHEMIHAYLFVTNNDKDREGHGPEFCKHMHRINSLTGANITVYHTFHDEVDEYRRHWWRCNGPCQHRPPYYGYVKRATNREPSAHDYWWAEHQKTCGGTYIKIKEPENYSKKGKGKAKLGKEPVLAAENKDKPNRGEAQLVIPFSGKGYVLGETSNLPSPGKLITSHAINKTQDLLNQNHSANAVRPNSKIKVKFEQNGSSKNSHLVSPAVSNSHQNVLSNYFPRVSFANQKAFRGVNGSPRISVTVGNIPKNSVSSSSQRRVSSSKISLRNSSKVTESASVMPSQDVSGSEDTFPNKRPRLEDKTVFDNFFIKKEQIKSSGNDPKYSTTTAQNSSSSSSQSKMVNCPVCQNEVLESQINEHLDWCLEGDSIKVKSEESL
UniProt Q9BYK8: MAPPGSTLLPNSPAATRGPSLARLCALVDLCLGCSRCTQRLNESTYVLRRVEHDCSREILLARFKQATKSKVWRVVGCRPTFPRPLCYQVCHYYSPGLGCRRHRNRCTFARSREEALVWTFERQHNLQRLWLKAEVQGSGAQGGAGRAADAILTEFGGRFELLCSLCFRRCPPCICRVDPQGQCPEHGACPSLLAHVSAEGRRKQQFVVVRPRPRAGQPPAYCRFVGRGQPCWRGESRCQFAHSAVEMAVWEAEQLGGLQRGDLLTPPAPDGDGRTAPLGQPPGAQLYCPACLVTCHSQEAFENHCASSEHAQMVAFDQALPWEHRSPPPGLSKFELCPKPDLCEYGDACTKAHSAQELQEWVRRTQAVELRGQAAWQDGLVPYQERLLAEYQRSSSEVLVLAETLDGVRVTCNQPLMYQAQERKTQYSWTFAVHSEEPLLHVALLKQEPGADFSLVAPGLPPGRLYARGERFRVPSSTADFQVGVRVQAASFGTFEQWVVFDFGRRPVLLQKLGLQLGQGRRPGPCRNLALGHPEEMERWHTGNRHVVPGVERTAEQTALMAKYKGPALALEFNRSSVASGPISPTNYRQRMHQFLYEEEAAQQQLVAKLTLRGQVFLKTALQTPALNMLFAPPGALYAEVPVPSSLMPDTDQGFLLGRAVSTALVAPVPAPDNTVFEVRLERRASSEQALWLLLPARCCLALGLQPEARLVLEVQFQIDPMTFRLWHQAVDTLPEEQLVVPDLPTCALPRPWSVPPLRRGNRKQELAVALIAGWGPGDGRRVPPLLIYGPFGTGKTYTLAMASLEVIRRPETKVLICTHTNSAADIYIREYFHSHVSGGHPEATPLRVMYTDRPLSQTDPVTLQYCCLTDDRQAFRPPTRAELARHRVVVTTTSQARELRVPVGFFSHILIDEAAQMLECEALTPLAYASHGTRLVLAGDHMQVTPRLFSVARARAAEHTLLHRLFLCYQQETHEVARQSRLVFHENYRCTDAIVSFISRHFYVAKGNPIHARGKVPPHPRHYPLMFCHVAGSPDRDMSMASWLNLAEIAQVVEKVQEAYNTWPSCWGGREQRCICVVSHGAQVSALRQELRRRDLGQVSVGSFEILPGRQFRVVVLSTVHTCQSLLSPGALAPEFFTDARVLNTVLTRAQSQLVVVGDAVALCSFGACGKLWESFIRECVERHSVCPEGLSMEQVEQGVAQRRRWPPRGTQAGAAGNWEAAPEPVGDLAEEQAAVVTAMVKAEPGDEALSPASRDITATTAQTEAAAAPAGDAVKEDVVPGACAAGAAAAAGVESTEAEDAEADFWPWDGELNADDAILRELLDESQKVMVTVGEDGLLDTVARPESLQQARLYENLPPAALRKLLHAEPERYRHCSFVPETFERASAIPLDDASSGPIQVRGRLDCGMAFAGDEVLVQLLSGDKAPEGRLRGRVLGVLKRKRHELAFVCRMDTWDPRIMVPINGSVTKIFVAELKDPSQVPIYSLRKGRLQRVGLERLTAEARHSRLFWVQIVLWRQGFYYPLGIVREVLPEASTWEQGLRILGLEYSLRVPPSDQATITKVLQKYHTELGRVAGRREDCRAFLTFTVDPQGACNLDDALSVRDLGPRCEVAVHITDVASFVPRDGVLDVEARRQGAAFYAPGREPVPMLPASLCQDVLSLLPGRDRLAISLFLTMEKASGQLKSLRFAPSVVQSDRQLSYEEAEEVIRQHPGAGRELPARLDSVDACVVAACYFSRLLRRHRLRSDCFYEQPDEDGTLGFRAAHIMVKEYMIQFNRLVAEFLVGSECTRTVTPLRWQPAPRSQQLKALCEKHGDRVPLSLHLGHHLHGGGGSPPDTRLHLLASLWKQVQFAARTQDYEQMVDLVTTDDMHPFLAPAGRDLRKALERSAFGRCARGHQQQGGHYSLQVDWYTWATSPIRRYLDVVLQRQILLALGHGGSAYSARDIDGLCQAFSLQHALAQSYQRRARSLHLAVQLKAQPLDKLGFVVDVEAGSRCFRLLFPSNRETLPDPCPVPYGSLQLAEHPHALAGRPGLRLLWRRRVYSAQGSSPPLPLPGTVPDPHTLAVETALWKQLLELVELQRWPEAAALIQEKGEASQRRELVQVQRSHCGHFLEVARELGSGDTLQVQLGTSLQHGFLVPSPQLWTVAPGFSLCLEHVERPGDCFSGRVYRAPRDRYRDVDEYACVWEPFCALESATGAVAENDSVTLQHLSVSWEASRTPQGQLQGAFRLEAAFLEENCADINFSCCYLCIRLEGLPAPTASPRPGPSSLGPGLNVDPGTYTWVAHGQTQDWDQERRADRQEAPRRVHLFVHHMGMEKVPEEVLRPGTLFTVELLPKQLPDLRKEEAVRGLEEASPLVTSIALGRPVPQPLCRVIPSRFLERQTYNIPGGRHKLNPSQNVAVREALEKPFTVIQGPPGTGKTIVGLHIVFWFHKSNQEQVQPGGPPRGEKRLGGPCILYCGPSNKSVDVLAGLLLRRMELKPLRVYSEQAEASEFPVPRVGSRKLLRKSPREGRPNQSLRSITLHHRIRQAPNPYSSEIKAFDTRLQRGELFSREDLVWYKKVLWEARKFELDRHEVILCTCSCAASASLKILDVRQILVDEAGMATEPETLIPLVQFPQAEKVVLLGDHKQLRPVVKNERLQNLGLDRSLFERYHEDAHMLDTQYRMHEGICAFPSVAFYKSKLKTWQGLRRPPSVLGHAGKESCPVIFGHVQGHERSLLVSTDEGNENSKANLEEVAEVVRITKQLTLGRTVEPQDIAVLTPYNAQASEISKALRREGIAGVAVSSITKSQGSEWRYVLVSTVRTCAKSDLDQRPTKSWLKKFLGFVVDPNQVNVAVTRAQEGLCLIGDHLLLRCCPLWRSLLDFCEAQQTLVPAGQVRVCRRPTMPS
UniProt Q9BXS5: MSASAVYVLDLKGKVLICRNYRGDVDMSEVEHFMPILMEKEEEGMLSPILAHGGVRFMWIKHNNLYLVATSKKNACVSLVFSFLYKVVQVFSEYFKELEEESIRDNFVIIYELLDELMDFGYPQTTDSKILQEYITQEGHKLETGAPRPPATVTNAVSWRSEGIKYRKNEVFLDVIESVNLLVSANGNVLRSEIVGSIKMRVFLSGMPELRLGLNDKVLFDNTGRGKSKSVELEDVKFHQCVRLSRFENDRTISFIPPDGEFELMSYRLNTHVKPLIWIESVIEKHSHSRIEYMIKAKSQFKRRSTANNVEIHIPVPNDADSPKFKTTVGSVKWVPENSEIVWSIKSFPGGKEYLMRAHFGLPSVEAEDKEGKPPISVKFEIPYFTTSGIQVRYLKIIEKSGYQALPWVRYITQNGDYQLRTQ
UniProt Q9GZZ1: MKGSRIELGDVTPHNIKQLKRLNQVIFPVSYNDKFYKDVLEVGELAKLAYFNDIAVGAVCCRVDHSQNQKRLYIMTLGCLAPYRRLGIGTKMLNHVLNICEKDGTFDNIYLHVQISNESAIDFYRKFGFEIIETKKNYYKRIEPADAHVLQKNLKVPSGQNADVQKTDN
UniProt Q9H079: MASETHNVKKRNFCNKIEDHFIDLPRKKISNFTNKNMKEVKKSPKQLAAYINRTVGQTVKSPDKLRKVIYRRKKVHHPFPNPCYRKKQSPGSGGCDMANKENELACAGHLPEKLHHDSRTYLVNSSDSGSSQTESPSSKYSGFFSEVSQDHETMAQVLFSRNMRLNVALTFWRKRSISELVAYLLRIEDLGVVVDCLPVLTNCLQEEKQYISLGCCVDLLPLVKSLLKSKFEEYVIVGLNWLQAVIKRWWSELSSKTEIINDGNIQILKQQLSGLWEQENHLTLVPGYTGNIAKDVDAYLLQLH

These targets were tested with CN[C@@H]1C[C@H]2O[C@@](C)([C@@H]1OC)n1c3ccccc3c3c4c(c5c6ccccc6n2c5c31)C(=O)NC4 [staurosporine] (assay: log2 fold change of tryptic peptide abundance, ligand vs vehicle (limited proteolysis) (log2 ratio); higher = more trypsin-susceptible (destabilized)). Conditions: ligand concentration: 20 uM; sample: K562 cleared lysate; digestion: 4 min, 22 C (HT-PELSA RT4min, Orbitrap Astral).
Work on “UniProt Q9C030 (peptide sequence: IIEEAENDLVHQTQSLR, peptide start residue: 215)” yielded a log2 fold change of -0.251.
“NDEL1 (peptide sequence: ISALNIVGDLLRK, peptide start residue: 251) (UniProt Q9GZM8)” gave a log2 fold change of 0.308.
For “FANCD2 (peptide sequence: QLVMDKLSSIR, peptide start residue: 264) (UniProt Q9BXW9)”, the log2 fold change was 0.356.
“TBC1D2 (peptide sequence: TQNCFLNSEIHQVTK, peptide start residue: 466) (UniProt Q9BYX2)” was tested, and the log2 fold change was -0.603.
Work on “SPRTN (peptide sequence: NSHLVSPAVSNSHQNVLSNYFPR, peptide start residue: 312) (UniProt Q9H040)” yielded a log2 fold change of -0.456.
“HELZ2 (peptide sequence: ELLDESQK, peptide start residue: 1077) (UniProt Q9BYK8)” showed a log2 fold change of -0.288.
For “MAP1LC3B (peptide sequence: QLPVLDKTK, peptide start residue: 43) (UniProt Q9GZQ8)”, the log2 fold change was 0.361.
Target “AP1M1 (peptide sequence: ILQEYITQEGHK, peptide start residue: 130) (UniProt Q9BXS5)” has a log2 fold change of -0.598.
Target “UniProt Q9GZZ1 (peptide sequence: RIEPADAHVLQK, peptide start residue: 141)” has a log2 fold change of -0.198.
“KATNBL1 (peptide sequence: QLAAYINR, peptide start residue: 46) (UniProt Q9H079)” showed a log2 fold change of -0.181.
